PubChem BioAssay AID1487 (National Center for Advancing Translational Sciences (NCATS), 2009)
Among all 200,000 compounds or so, about 25 (0.01%) were called active. This list was built around the results that the source calls inconclusive (neither active nor inactive); the mix of calls is not that of the screen. Calls come from the whole dose curve; as a rule, active = well fitted inhibition curve with a large enough effect in the signal ratio, with a control signal flat (not every such curve was filed as active); inconclusive = small, poorly fitted or top-dose-only effect, or effect the other way, or a change in a side signal; inactive = flat fitted curve, though single readings scatter; the % refers to the signal ratio. A potency beside an inconclusive call is a rough fit, not a confirmed value.

Assay: qHTS Assay for Modulators of Lamin A Splicing
Conditions: HeLa LMNA splicing GFP/RFP minigene ratio, 48 h; ratio change, negative = inhibition: at 46.1 µM (top of the series) unless noted
Method in brief: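 S3 HeLa cells stably expressing lamin A-EGFP splicing minigene plus DsRed2, 600 cells/well, 48 h compound exposure at 37C. Laser-scanning cytometry; analysed as GFP (500-530 nm)/RFP (575-640 nm) total intensity ratio; 0.5% DMSO vehicle.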
% is set by controls: 0 for no effect and ±100 for the full control effect; potency is the fitted concentration of half-maximal effect.

| SMILES | ratio change, negative = inhibition | Potency |
| --- | --- | --- |
| CCOC(=O)c1sc(NC(=O)CSc2nccc(C)n2)c(C#N)c1C | inactive | – |
| O=C(NCc1cccnc1)/C(=C\c1ccc(-c2ccc(Br)cc2)o1)S(=O)(=O)c1ccccc1 | inconclusive: 26% | – |
| O=C(NCc1ccc(F)cc1)c1cnn2ccccc12 | inactive | – |
| COc1ccc(OCCC(=O)OCC(=O)NCCC2=CCCCC2)cc1 | inconclusive: 8.18% [at 46 µM] | – |
| O=C(CSc1nc2ccccc2c(=O)n1-c1ccc(F)cc1)Nc1ccc(N2CCOCC2)cc1 | inactive | – |
| COCCCNC(=O)c1nn(-c2ccc(C)cc2)c(=O)n(C)c1=O | inconclusive: 6.5% [at 46 µM] | – |
| CC1CN(C(=O)Cc2ccc(-c3ccccc3)cc2)CC(C)O1 (stereo not given) | inconclusive: -22.9% | – |
| Cc1ccc(-n2c(SCC(=O)Nc3ccc4c(c3)OCCO4)nc3c([nH]c4ccccc43)c2=O)cc1 | inactive | – |
| COc1ccc(OC)c(S(=O)(=O)N2CCC(C(=O)NC(C)c3ccccc3)CC2)c1 (stereo not given) | inconclusive: 11.4% | – |
| Cc1ccc(C)c2[nH]c(=O)c(CN(Cc3ccc4c(c3)OCO4)Cc3nnnn3Cc3ccco3)cc12 | inactive | – |
| CC(C)(C)CC(C)(C)NC(=S)Nc1ccc(S(=O)(=O)N2CCOCC2)cc1 | – | inconclusive: 35.5 µM [falling, single point] |
| COCCn1c(=O)c(-c2cccs2)nc2cnc(N3CCNCC3)nc21 | inconclusive: -14.5% | – |
| Cc1cccn2c(NCc3ccc4c(c3)OCO4)c(-c3ccc(O)cc3)nc12 | – | inconclusive: 10 µM [inhibitor, partial curve] |
| CCNC(=O)C1CCN(Cc2cc3ccccc3n2Cc2ccc(C)cc2)CC1 | inconclusive: -9.35% [at 46 µM] | – |
| COc1ccccc1Cn1c(SCC(=O)C(C)(C)C)nc2ccccc2c1=O | inactive | – |
| COC(=O)N/N=C1\CCCc2ccccc21 | inconclusive: 0.609% | – |
| CCCCNC(=O)CC1N=C2c3ccccc3N=C(SCC(=O)Nc3ccc(OC)cc3)N2C1=O (stereo not given) | inactive | – |
| COCCN(C(=O)CSc1ncc(C(F)(F)F)cc1Cl)c1c(N)n(Cc2ccccc2)c(=O)[nH]c1=O | inconclusive: -15.5% [at 46 µM] | – |
| O=C(OCCN1CCOCC1)C1(c2ccccc2)CCCCC1 | inconclusive: -4.95% | – |
| CCC(=O)Nc1ccc(Oc2ccc3c(c2)C(=O)N(c2ccc(O)cc2)C3=O)cc1 | inactive | – |
| COc1ccc(N2CCN(C(=O)CSc3ccc(C)cc3)CC2)cc1 | inactive | – |
| Clc1cccc(OCCN2CCNCC2)c1 | inconclusive: -28.1% | – |

| SMILES | ratio change, negative = inhibition | Potency |
| --- | --- | --- |
| COc1ccc(N2CCN(C(=O)c3sc4nc5n(c(=O)c4c3C)CCC5)CC2)cc1 | inactive | – |
| Cc1ccc2c(CSc3nnc4ccccn34)cc(=O)oc2c1C | inactive | – |
| Cc1csc(NC(=O)C2CCN(S(=O)(=O)c3ccc4c(c3)oc(=O)n4C)CC2)n1 | inconclusive: -33.5% | – |
| Cc1ccc(C(=O)/C=C/NCc2ccc(F)cc2)cc1 | inactive | – |
| COC(=O)/C=C1\SC(=Nc2ccc(OC)cc2)NC1=O | inactive | – |
| O=C(Nc1cccc(C(=O)N2CCCCCC2)c1)c1ccco1 | inactive | – |
| CC1(C)Cc2c(c(N3CCCC3)[nH]c(=S)c2C#N)CO1 | inactive | – |
| COc1cccc(N2CCN(C(=O)c3ccc4nc(N5CCCCC5)sc4c3)CC2)c1 | inconclusive: -0.571% | – |
| COc1ccccc1OCC(=O)OCC(=O)NCCN1C(=O)CSC1=O | inconclusive: -6.46% | – |
| CC(C)c1ccc(-c2nnc(N)s2)cc1 | inactive | – |
| CCOc1ccc(NCc2nnc(SCc3ccc(Cl)cc3)n2-c2ccccc2)cc1 | – | inconclusive: 22.4 µM [falling, single point] |
| CCOCCCNc1c2c(nc3cc(-c4ccc(F)cc4)nn13)CCC2 | inconclusive: 19.8% [at 46 µM] | – |
| CCC(=O)Nc1ccccc1C(=O)OCC(=O)c1ccc2ccccc2c1 | – | inconclusive: 35.5 µM [falling, single point] |
| COc1ccc(-c2csc(CCn3nc(C)cc3C)n2)cc1 | – | inconclusive: 35.5 µM [falling, single point] |
| NS(=O)(=O)c1ccc(CCNC(=O)C(=O)NCC2OCCN2C(=O)c2ccc3c(c2)OCO3)cc1 (stereo not given) | inconclusive: 32.5% [at 46 µM] | – |
| COc1ccc(-c2nn(-c3ccccc3)cc2/C=C/C(=O)OCC(=O)Nc2ccc(C#N)cc2)cc1 | inactive | – |
| CCOc1ccccc1NC(=O)c1c(NCc2cccs2)sc2c1CCCCC2 | inconclusive: -25.9% [at 46 µM] | – |
| COc1ccc(-c2csc(Nc3ccc(C)cn3)n2)cc1OC | inconclusive: -29.1% [at 46 µM] | – |
| COc1cccc2cc(-c3csc(-c4ccc(Cl)cc4)n3)c(=O)oc12 | inactive | – |
| Cc1ccccc1N1CCN(C(=S)c2ccccc2)CC1 | inconclusive: -29.9% | – |
| COc1ccc(S(=O)(=O)N2CCOCC2)cc1N=Nc1sc(N)nc1-c1ccccc1 | inactive | – |

| SMILES | ratio change, negative = inhibition | Potency |
| --- | --- | --- |
| CCOC(=O)c1sc(N)c(C(N)=O)c1C | inactive | – |
| CCCN1C(=O)/C(=C/c2ccc(C)o2)SC1=Nc1ccc(OCC)cc1 | inactive | – |
| CCOc1ccc(C(=O)Nc2ccccc2OCc2cc(=O)n3ccccc3n2)cc1 | inconclusive: -1.68% [at 46 µM] | – |
| CCN(CC)S(=O)(=O)c1ccc(NC(=S)NC(=O)CC(C)C)cc1 | inconclusive: -35.8% | – |
| CCCCC(O)(CCCC)C(=O)NN(C(=O)CCl)c1ccccc1 | inconclusive: 102% | – |
| O=C(O)c1cc(Br)ccn1 | inactive: 9.7% [at 9.22 µM] | – |
| CC(C)Oc1cccc(C(=O)NC(=S)Nc2ccccc2)c1 | – | inconclusive: 35.5 µM [fluorescent, single point] |
| O=C(COC(=O)c1ccccc1C(=O)N1CCN(c2ccccc2)CC1)Nc1ccc(F)cc1 | – | inconclusive: 11.2 µM [falling, partial curve] |
| CCN(CC)CC(=O)Nc1cc(N(C)C)nc2ccccc12 | inconclusive: 9.5% [at 46 µM] | – |
| CCCS(=O)(=O)N1CC(=O)N(c2ccccc2C)C(C)(C(=O)NC2CCCCC2)C1 (stereo not given) | inconclusive: 14.6% [at 46 µM] | – |
| COc1ccc(C(C)=O)c(OC(=O)c2ccco2)c1 | inactive | – |
| O=C(COC(=O)CC1c2ccccc2CCN1S(=O)(=O)c1ccc(F)cc1)Nc1ccccc1 (stereo not given) | inconclusive: -8.99% | – |
| COc1ccc(CCNC(=O)c2ccc3ccccc3n2)cc1OC | inconclusive: -21.2% [at 46 µM] | – |
| COc1ccc2cc(C(=O)N3CCCCCC3)sc(=O)c2c1OC | inactive | – |
| O=C(N/N=C/c1cccc(Oc2ccccc2)c1)c1ccccc1Br | inconclusive: 3.99% | – |
| O=C(Nc1ccc[n+](CC(=O)c2cccc3ccccc23)c1)c1ccccc1 | inconclusive: -21.9% | – |
| O=C(Nc1ccccc1-c1ccccc1)c1cccc([N+](=O)[O-])c1 | inactive | – |
| C/C(=N/NS(=O)(=O)c1ccc(C)cc1)c1cccc(NC(=O)c2cccc(Cl)c2)c1 | inconclusive: -15.5% | – |
| COC(=O)c1ccc(C)c(NS(=O)(=O)c2ccc(OC)c(OC)c2)c1 | inconclusive: 1.67% | – |
| CCOC(=O)c1cccc(NC(=O)C2CCCO2)c1 (stereo not given) | inactive | – |
| CC(OC(=O)c1cc2c(ccc3ccccc32)oc1=O)c1nc2ccccc2s1 (stereo not given) | inconclusive: -30.5% | – |
| O=C1c2ccccc2C(=O)c2c1ccc(C(=O)N1CCCCC1)c2NCCO | inactive | – |

A different layout for some results above.
SMILES | ratio change, negative = inhibition | Potency
CCOC(=O)c1sc(N)c(C(N)=O)c1C | inactive | –
CCCN1C(=O)/C(=C/c2ccc(C)o2)SC1=Nc1ccc(OCC)cc1 | inactive | –
CCOc1ccc(C(=O)Nc2ccccc2OCc2cc(=O)n3ccccc3n2)cc1 | inconclusive: -1.68% [at 46 µM] | –
CCN(CC)S(=O)(=O)c1ccc(NC(=S)NC(=O)CC(C)C)cc1 | inconclusive: -35.8% | –
CCCCC(O)(CCCC)C(=O)NN(C(=O)CCl)c1ccccc1 | inconclusive: 102% | –
O=C(O)c1cc(Br)ccn1 | inactive: 9.7% [at 9.22 µM] | –
CC(C)Oc1cccc(C(=O)NC(=S)Nc2ccccc2)c1 | – | inconclusive: 35.5 µM [fluorescent, single point]
O=C(COC(=O)c1ccccc1C(=O)N1CCN(c2ccccc2)CC1)Nc1ccc(F)cc1 | – | inconclusive: 11.2 µM [falling, partial curve]
CCN(CC)CC(=O)Nc1cc(N(C)C)nc2ccccc12 | inconclusive: 9.5% [at 46 µM] | –
CCCS(=O)(=O)N1CC(=O)N(c2ccccc2C)C(C)(C(=O)NC2CCCCC2)C1 (stereo not given) | inconclusive: 14.6% [at 46 µM] | –
COc1ccc(C(C)=O)c(OC(=O)c2ccco2)c1 | inactive | –
O=C(COC(=O)CC1c2ccccc2CCN1S(=O)(=O)c1ccc(F)cc1)Nc1ccccc1 (stereo not given) | inconclusive: -8.99% | –
COc1ccc(CCNC(=O)c2ccc3ccccc3n2)cc1OC | inconclusive: -21.2% [at 46 µM] | –
COc1ccc2cc(C(=O)N3CCCCCC3)sc(=O)c2c1OC | inactive | –
O=C(N/N=C/c1cccc(Oc2ccccc2)c1)c1ccccc1Br | inconclusive: 3.99% | –
O=C(Nc1ccc[n+](CC(=O)c2cccc3ccccc23)c1)c1ccccc1 | inconclusive: -21.9% | –
O=C(Nc1ccccc1-c1ccccc1)c1cccc([N+](=O)[O-])c1 | inactive | –
C/C(=N/NS(=O)(=O)c1ccc(C)cc1)c1cccc(NC(=O)c2cccc(Cl)c2)c1 | inconclusive: -15.5% | –
O=C1c2ccccc2C(=O)c2c1ccc(C(=O)N1CCCCC1)c2NCCO | inactive | –

Further records follow:

| SMILES | ratio change, negative = inhibition | Potency |
| --- | --- | --- |
| CCOc1ccc2nc(NCCNC(=O)C(C)C)c(C)cc2c1 | inconclusive: -15% | – |
| Cc1nnc(SC(C(=O)Nc2cc(Cl)cc(Cl)c2)c2ccccc2)[nH]c1=O (stereo not given) | – | inconclusive: 20 µM [inhibitor, partial curve, poor fit] |
| Cc1ccc(-c2ccc(SCC(=O)Nc3ccc4c(c3)OCCO4)nn2)cc1 | – | inconclusive: 25.1 µM [falling, single point] |
| O=C(c1ccc(Cl)cc1Cl)N1CCC(c2nc3c(nnn3Cc3ccco3)c(=O)[nH]2)CC1 | inactive | – |
| Cc1ccc(C)c(OCC(O)CN2CCN(CCN3C(=O)c4cccc5cccc(c45)C3=O)CC2)c1 (stereo not given) | inconclusive: -37.6% | – |
| CC1(OC(=O)CCc2ccccc2)C(=O)C=C2C=C(c3ccc(C#N)cc3)N(CC3CC3)C=C2C1=O (stereo not given) | inactive: -14.3% [at 9.22 µM] | – |
| COc1ccc(-c2cc(OC(=O)c3ccc(F)cc3)c3c(C)oc(C)c3c(=O)c2)cc1 | inconclusive: -23.8% | – |
| O=C(NCCO)c1ccc(Oc2ccc(C(F)(F)F)cc2[N+](=O)[O-])cc1 | inconclusive: -1.3% [at 46 µM] | – |
| CCOc1cc(N2CCOCC2)c(OCC)cc1NC(=O)CCS(=O)(=O)c1ccc(Cl)cc1 | inactive | – |
| COCCSc1ccccc1C(=O)Nc1ccccc1C#N | inconclusive: 33.9% [at 46 µM] | – |
| Cc1ccc(CSCC(=O)Nc2ccc3c(c2)OCO3)cc1 | inactive | – |
| Cc1ccc(C(CC(=O)c2ccc(Cl)cc2)C(=O)O)cc1 (stereo not given) | inactive | – |
| COCCCC/C(=N\OCCN)c1ccc(C(F)(F)F)cc1 | – | inconclusive: 3.16 µM [activator, partial curve] |
| CN(Cc1ccccc1)S(=O)(=O)c1ccc(F)c(C(=O)Nc2cc(Cl)cc(Cl)c2)c1 | inactive | – |
| CCOC(=O)COc1cccc2c(=O)n(CC(=O)NCCc3ccccc3)ccc12 | inconclusive: 0.688% | – |
| COc1ccc(N(C(=O)c2ccccc2OC(C)=O)C(C)C2CC2)cc1 (stereo not given) | inconclusive: 23.2% | – |
| Cc1cc(OCc2cn3cccnc3n2)ccc1Cl | inconclusive: -5.16% | – |
| Cc1ccc(Cn2cc3c(n2)-c2c(oc(C(=O)Nc4ccc(F)cc4F)c2C)CC3)cc1 | inactive | – |
| O=C(NNc1cc(N2CCOCC2)nc(N2CCOCC2)n1)c1ccc(Cl)c(Cl)c1 | inactive | – |
